# Assay results published in the supplement of paper PMC8728848.
# Some of the results follow.
# What was measured:
# Assay in all cases: glycan array binding signal (z-score within array); higher = stronger binding
# Details in all cases: glycan notation: IUPAC condensed, linker removed
# [1] = target: GlcNAc(b1-2)Man(a1-3)[GlcNAc(b1-2)Man(a1-6)]Man(b1-4)GlcNAc(b1-4)GlcNAc
# Procedure, shortened: (§1)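 Arrays were curated from the Consortium for Functional Glycomics database, 3228 in total, and kept only where the protein sequence was available. Binding is expressed as a within-array Z-score. This score was averaged across arrays of the same protein sequence at different concentrations or buffers and across linkers, and negative values can be read as non-binding.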
# GlcNAc(b1-3)Gal = target: GlcNAc(b1-3)Gal
# Procedure, shortened: as §1
# [2] = target: GlcNAc(b1-3)Gal(b1-3)GalNAc
# Procedure, shortened: as §1
# GlcNAc(b1-3)Gal(b1-4)Glc = target: GlcNAc(b1-3)Gal(b1-4)Glc
# Procedure, shortened: as §1
# [3] = target: GlcNAc(b1-3)Gal(b1-4)GlcNAc
# Procedure, shortened: as §1
# [4] = target: GlcNAc(b1-3)Gal(b1-4)GlcNAc(b1-3)Gal(b1-4)GlcNAc
# Procedure, shortened: as §1
# GlcNAc(b1-3)GalNAc = target: GlcNAc(b1-3)GalNAc
# Procedure, shortened: as §1
# [5] = target: GlcNAc(b1-3)[GlcNAc(b1-4)][GlcNAc(b1-6)]GlcNAc
# Procedure, shortened: as §1
# [6] = target: GlcNAc(b1-3)[GlcNAc(b1-6)]Gal(b1-4)GlcNAc
# Procedure, shortened: as §1
# [7] = target: GlcNAc(b1-3)[GlcNAc(b1-6)]GlcNAc
# Procedure, shortened: as §1
# [8] = target: GlcNAc(b1-4)Gal(b1-4)GlcNAc
# Procedure, shortened: as §1
# [9] = target: GlcNAc(b1-4)GlcNAc(b1-4)GlcNAc
# Procedure, shortened: as §1
# [10] = target: GlcNAc(b1-4)GlcNAc(b1-4)GlcNAc(b1-4)GlcNAc(b1-4)GlcNAc
# Procedure, shortened: as §1
# [11] = target: GlcNAc(b1-4)GlcNAc(b1-4)GlcNAc(b1-4)GlcNAc(b1-4)GlcNAc(b1-4)GlcNAc
# Procedure, shortened: as §1
# [12] = target: GlcNAc(b1-4)[GlcNAc(b1-6)]GalNAc
# Procedure, shortened: as §1
# [13] = target: GlcNAc(b1-6)Gal(b1-4)GlcNAc
# Procedure, shortened: as §1
# GlcNAc(b1-6)GalNAc = target: GlcNAc(b1-6)GalNAc
# Procedure, shortened: as §1
# Kdn(a2-3)Gal(b1-3)GlcNAc = target: Kdn(a2-3)Gal(b1-3)GlcNAc
# Procedure, shortened: as §1
# Kdn(a2-3)Gal(b1-4)GlcNAc = target: Kdn(a2-3)Gal(b1-4)GlcNAc
# Procedure, shortened: as §1
# [14] = target: Man(a1-2)Man(a1-2)Man(a1-3)Man
# Procedure, shortened: as §1
# [15] = target: Man(a1-2)Man(a1-2)Man(a1-3)[Man(a1-2)Man(a1-3)[Man(a1-2)Man(a1-6)]Man(a1-6)]Man(b1-4)GlcNAc(b1-4)GlcNAc
# Procedure, shortened: as §1
# [16] = target: Man(a1-2)Man(a1-2)Man(a1-3)[Man(a1-2)Man(a1-6)[Man(a1-3)]Man(a1-6)]Man(b1-4)GlcNAc(b1-4)GlcNAc
# Procedure, shortened: as §1
# [17] = target: Man(a1-2)Man(a1-2)Man(a1-6)[Man(a1-3)]Man
# Procedure, shortened: as §1
# Man(a1-2)Man(a1-3)Man = target: Man(a1-2)Man(a1-3)Man
# Procedure, shortened: as §1
# [18] = target: Man(a1-2)Man(a1-3)[Man(a1-2)Man(a1-6)]Man
# Procedure, shortened: as §1
# [19] = target: Man(a1-2)Man(a1-3)[Man(a1-3)[Man(a1-6)]Man(a1-6)]Man(b1-4)GlcNAc(b1-4)GlcNAc
# Procedure, shortened: as §1
# [20] = target: Man(a1-2)Man(a1-3)[Man(a1-6)]Man(a1-6)[Man(a1-2)Man(a1-3)]Man(b1-4)GlcNAc(b1-4)GlcNAc
# Procedure, shortened: as §1
# Man(a1-3)[Man(a1-6)]Man = target: Man(a1-3)[Man(a1-6)]Man
# Procedure, shortened: as §1
# [21] = target: Man(a1-3)[Man(a1-6)]Man(a1-6)[Man(a1-3)]Man(b1-4)GlcNAc(b1-4)GlcNAc
# Procedure, shortened: as §1
# [22] = target: Man(a1-3)[Man(a1-6)]Man(b1-4)GlcNAc(b1-4)GlcNAc
# Procedure, shortened: as §1
# Man(b1-4)GlcNAc = target: Man(b1-4)GlcNAc
# Procedure, shortened: as §1
# Neu5Ac(a2-3)Gal = target: Neu5Ac(a2-3)Gal
# Procedure, shortened: as §1
# [23] = target: Neu5Ac(a2-3)Gal(b1-3)GalNAc
# Procedure, shortened: as §1
# [24] = target: Neu5Ac(a2-3)Gal(b1-3)GalNAc(b1-3)Gal(a1-4)Gal(b1-4)Glc
# Procedure, shortened: as §1
# [25] = target: Neu5Ac(a2-3)Gal(b1-3)GalNAc(b1-4)[Neu5Ac(a2-3)]Gal(b1-4)Glc
# Procedure, shortened: as §1
# [26] = target: Neu5Ac(a2-3)Gal(b1-3)GalNAc6S
# Procedure, shortened: as §1
# [27] = target: Neu5Ac(a2-3)Gal(b1-3)GlcNAc
# Procedure, shortened: as §1
# [28] = target: Neu5Ac(a2-3)Gal(b1-3)GlcNAc(b1-3)Gal(b1-3)GlcNAc
# Procedure, shortened: as §1
# [29] = target: Neu5Ac(a2-3)Gal(b1-3)GlcNAc(b1-3)Gal(b1-4)GlcNAc
# Procedure, shortened: as §1
# [30] = target: Neu5Ac(a2-3)Gal(b1-3)GlcNAc6S
# Procedure, shortened: as §1
# [31] = target: Neu5Ac(a2-3)Gal(b1-3)[Fuc(a1-4)]GlcNAc
# Procedure, shortened: as §1
# [32] = target: Neu5Ac(a2-3)Gal(b1-3)[Fuc(a1-4)]GlcNAc(b1-3)Gal(b1-4)[Fuc(a1-3)]GlcNAc
# Procedure, shortened: as §1
# [33] = target: Neu5Ac(a2-3)Gal(b1-3)[Neu5Ac(a2-3)Gal(b1-4)]GlcNAc
# Procedure, shortened: as §1
binder,measurement,setting,value
"MLTim-4 (Mus musculus), Q6U7R4 (protein) MSKGLLLLWLVTELWWLYLTPAASEDTIIGFLGQPVTLPCHYLSWSQSRNSMCWGKGSCPNSKCNAELLRTDGTRIISRKSTKYTLLGKVQFGEVSLTISNTNRGDSGVYCCRIEVPGWFNDVKKNVRLELRRAT",glycan array binding signal (z-score),[1],0.336
same,glycan array binding signal (z-score),GlcNAc(b1-3)Gal,-0.316
same,glycan array binding signal (z-score),[2],0.068
same,glycan array binding signal (z-score),GlcNAc(b1-3)Gal(b1-4)Glc,-0.475
same,glycan array binding signal (z-score),[3],0.557
same,glycan array binding signal (z-score),[4],-0.917
same,glycan array binding signal (z-score),GlcNAc(b1-3)GalNAc,-0.115
same,glycan array binding signal (z-score),[5],-0.523
same,glycan array binding signal (z-score),[6],-0.473
same,glycan array binding signal (z-score),[7],-0.206
same,glycan array binding signal (z-score),[8],-1.18
same,glycan array binding signal (z-score),[9],-0.436
same,glycan array binding signal (z-score),[10],-0.775
same,glycan array binding signal (z-score),[11],0.68
same,glycan array binding signal (z-score),[12],-0.498
same,glycan array binding signal (z-score),[13],-0.527
same,glycan array binding signal (z-score),GlcNAc(b1-6)GalNAc,0.065
same,glycan array binding signal (z-score),Kdn(a2-3)Gal(b1-3)GlcNAc,-0.308
same,glycan array binding signal (z-score),Kdn(a2-3)Gal(b1-4)GlcNAc,0.341
same,glycan array binding signal (z-score),[14],-0.221
same,glycan array binding signal (z-score),[15],0.08
same,glycan array binding signal (z-score),[16],-0.533
same,glycan array binding signal (z-score),[17],0.353
same,glycan array binding signal (z-score),Man(a1-2)Man(a1-3)Man,0.186
same,glycan array binding signal (z-score),[18],-0.233
same,glycan array binding signal (z-score),[19],-0.785
same,glycan array binding signal (z-score),[20],-0.137
same,glycan array binding signal (z-score),Man(a1-3)[Man(a1-6)]Man,-0.171
same,glycan array binding signal (z-score),[21],1.01
same,glycan array binding signal (z-score),[22],0.53
same,glycan array binding signal (z-score),Man(b1-4)GlcNAc,1.06
same,glycan array binding signal (z-score),Neu5Ac(a2-3)Gal,-0.334
same,glycan array binding signal (z-score),[23],-0.26
same,glycan array binding signal (z-score),[24],-0.523
same,glycan array binding signal (z-score),[25],-0.531
same,glycan array binding signal (z-score),[26],-0.456
same,glycan array binding signal (z-score),[27],-0.547
same,glycan array binding signal (z-score),[28],-1.04
same,glycan array binding signal (z-score),[29],-1.06
same,glycan array binding signal (z-score),[30],2.45
same,glycan array binding signal (z-score),[31],-0.948
same,glycan array binding signal (z-score),[32],-0.678
same,glycan array binding signal (z-score),[33],-0.946

# Some of the entries so far, bar-delimited:
binder | measurement | setting | value
MLTim-4 (Mus musculus), Q6U7R4 (protein) MSKGLLLLWLVTELWWLYLTPAASEDTIIGFLGQPVTLPCHYLSWSQSRNSMCWGKGSCPNSKCNAELLRTDGTRIISRKSTKYTLLGKVQFGEVSLTISNTNRGDSGVYCCRIEVPGWFNDVKKNVRLELRRAT | glycan array binding signal (z-score) | Man(a1-2)Man(a1-3)Man | 0.186
same | glycan array binding signal (z-score) | [18] | -0.233
same | glycan array binding signal (z-score) | [19] | -0.785
same | glycan array binding signal (z-score) | [20] | -0.137
